Results reported in the supplement of paper PMC11732987, “Enantioselective OTUD7B fragment discovery through chemoproteomics screening and high-throughput optimisation” (Communications Chemistry, 2025).
The list shows a part of the results. The data scatter; read single values as rough.

Amino acid sequences for entries named in this document (tags omitted). A change or cut given only in a name is not applied to a line headed by its entry.
UniProt O95292: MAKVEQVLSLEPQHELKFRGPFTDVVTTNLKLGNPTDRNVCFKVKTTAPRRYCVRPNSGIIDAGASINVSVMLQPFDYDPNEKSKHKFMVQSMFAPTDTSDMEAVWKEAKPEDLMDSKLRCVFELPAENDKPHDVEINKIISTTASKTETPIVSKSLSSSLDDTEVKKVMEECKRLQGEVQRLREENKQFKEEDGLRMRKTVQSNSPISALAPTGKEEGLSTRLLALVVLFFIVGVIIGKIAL
UniProt O94763, whole entry, looked up: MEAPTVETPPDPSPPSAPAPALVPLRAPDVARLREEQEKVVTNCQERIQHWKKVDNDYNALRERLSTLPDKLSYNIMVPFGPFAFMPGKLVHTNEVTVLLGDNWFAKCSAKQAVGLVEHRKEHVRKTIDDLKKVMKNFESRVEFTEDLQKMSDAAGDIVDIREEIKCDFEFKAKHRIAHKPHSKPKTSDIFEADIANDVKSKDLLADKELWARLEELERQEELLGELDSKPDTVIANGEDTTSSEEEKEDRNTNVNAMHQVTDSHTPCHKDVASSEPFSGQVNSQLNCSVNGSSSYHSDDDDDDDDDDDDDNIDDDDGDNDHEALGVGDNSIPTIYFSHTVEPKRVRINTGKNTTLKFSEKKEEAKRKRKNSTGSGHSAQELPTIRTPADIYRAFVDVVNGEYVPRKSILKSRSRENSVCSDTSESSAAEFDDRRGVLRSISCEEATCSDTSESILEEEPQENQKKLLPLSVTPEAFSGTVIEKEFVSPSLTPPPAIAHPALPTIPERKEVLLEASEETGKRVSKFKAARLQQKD
UniProt O75691: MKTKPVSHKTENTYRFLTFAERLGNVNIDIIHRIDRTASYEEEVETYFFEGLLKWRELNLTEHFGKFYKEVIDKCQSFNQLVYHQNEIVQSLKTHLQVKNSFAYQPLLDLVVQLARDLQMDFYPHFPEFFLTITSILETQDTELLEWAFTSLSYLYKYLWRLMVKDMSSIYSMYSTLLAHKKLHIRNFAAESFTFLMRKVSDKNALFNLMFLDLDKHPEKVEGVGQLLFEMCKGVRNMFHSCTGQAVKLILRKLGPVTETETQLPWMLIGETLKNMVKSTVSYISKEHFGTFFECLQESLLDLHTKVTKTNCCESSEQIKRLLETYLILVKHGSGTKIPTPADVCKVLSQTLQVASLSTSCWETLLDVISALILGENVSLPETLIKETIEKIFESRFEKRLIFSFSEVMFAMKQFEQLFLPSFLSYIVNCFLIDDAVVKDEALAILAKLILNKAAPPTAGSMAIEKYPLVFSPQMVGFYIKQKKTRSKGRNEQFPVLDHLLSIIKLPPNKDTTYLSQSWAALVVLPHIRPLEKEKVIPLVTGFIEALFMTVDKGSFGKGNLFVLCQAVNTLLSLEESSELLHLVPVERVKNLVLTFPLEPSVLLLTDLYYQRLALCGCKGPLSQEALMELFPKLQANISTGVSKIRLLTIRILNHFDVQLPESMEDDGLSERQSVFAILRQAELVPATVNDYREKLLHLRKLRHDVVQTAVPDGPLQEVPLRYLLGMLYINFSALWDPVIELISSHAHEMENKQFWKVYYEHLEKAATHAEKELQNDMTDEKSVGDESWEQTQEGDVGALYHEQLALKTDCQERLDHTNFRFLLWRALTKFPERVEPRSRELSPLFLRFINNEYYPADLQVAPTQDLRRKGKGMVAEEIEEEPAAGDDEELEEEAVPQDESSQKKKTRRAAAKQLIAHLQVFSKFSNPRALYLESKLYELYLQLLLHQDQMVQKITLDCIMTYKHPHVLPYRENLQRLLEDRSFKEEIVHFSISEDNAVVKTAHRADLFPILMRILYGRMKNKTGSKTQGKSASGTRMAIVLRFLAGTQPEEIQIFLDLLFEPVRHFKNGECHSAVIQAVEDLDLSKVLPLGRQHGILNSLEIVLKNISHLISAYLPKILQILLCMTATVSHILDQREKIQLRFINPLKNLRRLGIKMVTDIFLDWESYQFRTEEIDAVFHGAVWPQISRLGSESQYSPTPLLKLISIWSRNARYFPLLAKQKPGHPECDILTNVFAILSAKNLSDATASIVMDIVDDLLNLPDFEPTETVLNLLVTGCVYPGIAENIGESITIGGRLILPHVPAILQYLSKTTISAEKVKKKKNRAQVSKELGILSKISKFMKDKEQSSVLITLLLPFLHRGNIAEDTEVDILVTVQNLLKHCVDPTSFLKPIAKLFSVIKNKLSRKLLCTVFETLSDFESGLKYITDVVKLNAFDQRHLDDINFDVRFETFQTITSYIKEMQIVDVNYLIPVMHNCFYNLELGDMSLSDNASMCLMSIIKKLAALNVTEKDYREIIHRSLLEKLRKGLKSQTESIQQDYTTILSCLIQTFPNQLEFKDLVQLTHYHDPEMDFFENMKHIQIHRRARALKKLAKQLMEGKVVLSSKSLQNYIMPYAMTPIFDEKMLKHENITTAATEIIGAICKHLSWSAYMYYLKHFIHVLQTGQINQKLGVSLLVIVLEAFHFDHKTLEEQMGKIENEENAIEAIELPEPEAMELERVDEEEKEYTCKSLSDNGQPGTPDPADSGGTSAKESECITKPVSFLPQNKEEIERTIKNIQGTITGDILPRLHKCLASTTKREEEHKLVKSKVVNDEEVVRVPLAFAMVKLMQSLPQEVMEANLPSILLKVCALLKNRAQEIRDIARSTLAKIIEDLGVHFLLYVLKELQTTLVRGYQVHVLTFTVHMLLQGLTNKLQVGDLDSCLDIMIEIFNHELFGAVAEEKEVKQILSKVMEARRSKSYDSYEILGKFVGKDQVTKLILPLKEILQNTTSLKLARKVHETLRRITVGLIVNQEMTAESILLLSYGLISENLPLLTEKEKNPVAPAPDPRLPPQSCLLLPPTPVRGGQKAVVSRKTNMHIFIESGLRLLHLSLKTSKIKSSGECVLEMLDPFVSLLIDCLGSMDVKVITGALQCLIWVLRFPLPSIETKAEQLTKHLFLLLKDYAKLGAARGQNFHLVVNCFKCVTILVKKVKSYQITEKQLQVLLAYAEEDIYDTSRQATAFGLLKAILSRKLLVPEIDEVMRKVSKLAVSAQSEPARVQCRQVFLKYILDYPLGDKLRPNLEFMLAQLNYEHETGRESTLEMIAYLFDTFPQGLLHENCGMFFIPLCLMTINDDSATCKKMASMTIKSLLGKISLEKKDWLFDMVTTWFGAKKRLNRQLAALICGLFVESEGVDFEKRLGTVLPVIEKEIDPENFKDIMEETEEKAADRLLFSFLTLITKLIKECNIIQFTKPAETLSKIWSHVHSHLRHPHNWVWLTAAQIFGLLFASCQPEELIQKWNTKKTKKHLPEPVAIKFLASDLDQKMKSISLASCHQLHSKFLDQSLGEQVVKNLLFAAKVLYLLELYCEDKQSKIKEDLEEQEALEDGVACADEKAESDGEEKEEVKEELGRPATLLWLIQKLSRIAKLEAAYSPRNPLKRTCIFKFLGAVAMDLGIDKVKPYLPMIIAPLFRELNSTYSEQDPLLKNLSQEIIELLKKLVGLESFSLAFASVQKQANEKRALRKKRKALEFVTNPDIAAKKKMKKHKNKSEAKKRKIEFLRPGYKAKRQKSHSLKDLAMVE
UniProt O94966: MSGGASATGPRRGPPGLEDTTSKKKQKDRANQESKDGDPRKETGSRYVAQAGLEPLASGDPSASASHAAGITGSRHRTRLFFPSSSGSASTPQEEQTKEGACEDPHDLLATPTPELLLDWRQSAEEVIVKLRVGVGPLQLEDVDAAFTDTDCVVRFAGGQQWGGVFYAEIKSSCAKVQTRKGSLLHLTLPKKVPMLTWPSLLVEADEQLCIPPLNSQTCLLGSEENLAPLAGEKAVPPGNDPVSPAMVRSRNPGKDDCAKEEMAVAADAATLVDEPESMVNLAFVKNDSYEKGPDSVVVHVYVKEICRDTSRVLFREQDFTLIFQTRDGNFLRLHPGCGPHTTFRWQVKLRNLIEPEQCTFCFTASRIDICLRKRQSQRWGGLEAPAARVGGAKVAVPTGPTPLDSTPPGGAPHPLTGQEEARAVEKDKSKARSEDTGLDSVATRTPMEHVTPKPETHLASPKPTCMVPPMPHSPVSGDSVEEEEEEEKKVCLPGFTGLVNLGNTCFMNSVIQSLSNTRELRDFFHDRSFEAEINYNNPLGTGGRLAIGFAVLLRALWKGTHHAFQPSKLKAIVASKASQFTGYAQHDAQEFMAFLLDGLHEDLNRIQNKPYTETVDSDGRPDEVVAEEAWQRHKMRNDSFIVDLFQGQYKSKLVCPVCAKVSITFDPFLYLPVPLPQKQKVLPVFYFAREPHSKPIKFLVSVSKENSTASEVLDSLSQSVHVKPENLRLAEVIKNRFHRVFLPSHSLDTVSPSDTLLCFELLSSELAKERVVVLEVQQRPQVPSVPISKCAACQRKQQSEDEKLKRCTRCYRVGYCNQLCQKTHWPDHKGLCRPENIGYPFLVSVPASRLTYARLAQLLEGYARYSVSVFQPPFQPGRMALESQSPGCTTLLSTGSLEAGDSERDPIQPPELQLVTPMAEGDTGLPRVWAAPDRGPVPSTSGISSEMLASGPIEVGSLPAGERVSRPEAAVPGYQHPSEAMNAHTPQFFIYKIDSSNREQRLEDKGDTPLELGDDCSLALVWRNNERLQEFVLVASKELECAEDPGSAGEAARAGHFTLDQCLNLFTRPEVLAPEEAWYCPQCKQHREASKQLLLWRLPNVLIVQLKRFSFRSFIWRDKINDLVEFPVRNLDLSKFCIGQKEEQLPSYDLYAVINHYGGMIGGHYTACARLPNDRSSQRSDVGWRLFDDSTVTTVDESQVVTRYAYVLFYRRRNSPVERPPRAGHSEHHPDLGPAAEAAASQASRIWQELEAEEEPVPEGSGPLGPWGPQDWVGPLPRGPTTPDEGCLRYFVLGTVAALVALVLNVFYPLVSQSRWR
UniProt Q9BZI7: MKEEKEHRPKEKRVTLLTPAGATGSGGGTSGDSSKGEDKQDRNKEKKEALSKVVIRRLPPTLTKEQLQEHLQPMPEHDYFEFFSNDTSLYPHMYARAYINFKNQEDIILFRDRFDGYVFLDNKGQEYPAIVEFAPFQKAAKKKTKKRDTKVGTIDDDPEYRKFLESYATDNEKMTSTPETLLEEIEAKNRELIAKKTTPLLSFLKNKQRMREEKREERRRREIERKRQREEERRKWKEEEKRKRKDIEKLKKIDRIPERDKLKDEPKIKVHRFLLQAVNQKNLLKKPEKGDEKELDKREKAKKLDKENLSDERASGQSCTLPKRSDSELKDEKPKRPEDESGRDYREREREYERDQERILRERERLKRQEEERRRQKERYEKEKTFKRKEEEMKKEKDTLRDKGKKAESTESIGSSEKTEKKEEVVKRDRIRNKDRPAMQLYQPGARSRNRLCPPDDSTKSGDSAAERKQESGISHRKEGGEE
UniProt Q96JH7: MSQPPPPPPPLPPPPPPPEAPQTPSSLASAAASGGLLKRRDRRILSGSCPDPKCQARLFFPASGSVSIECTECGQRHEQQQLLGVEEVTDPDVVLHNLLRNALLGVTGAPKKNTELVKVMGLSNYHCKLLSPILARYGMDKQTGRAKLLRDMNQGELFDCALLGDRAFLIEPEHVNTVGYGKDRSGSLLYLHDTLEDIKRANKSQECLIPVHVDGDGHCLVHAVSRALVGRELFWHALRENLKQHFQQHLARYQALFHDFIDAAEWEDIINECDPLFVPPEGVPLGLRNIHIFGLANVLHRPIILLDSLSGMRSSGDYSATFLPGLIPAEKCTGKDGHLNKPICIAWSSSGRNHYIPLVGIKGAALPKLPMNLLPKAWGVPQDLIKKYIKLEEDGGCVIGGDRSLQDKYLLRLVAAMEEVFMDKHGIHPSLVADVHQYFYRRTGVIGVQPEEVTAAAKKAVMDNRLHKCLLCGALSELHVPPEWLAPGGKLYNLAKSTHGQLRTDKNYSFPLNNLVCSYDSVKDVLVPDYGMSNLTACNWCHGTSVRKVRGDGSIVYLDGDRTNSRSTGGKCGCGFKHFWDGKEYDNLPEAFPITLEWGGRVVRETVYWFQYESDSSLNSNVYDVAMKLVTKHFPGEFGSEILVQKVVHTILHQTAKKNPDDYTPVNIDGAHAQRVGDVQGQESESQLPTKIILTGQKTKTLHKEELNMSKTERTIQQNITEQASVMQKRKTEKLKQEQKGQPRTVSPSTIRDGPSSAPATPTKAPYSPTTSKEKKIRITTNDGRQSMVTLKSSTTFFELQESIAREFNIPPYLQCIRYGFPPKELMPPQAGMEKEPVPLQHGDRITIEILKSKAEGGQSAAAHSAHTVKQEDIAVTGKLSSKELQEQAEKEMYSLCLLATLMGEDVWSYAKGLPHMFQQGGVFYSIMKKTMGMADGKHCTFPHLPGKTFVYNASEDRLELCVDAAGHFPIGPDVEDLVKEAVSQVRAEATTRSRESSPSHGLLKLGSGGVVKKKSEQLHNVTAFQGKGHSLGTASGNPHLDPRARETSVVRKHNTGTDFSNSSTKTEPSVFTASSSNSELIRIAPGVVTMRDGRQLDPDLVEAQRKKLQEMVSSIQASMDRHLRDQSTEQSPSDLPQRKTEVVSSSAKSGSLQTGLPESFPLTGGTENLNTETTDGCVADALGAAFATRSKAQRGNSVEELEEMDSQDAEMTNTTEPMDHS

Each target was assayed with ClCC(=O)N[C@@H]1CCCc2ccccc12 (assay: log2 mean competition ratio of IA-DTB cysteine labelling (DMSO/compound) (log2 ratio); higher = stronger cysteine engagement by compound). Details: 50 µM; treatment time: 4 h; cell line lysate: HEK293T.
Procedure: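 IA-DTB competitive cysteine chemoproteomics in HEK293T RIPA lysate. Lysates were treated with compound 29 or 30 at 50 or 200 µM for 4 h, then IA-DTB (500 µM, 1 h), trypsin-digested, NeutrAvidin-enriched and analysed by diaPASEF. Competition ratio = intensity DMSO / intensity compound (n=4 treated, n=64 DMSO); binding: mean log2 CR ≥ 1 and p ≤ 0.05 plus QC filters. Target is the cysteine site.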
VAPB C121 (UniProt O95292) was tested, and the “log2 mean competition ratio” value was 0.156.
In the case of USP38 C834 (UniProt Q8NB14), the “log2 mean competition ratio” value is reported as -0.188.
URI1 C167 (UniProt O94763) was tested, and the “log2 mean competition ratio” value was -0.401.
In the case of VPS18 C741 (UniProt Q9P253), the “log2 mean competition ratio” value is reported as -0.426.
VPS33B C259 (UniProt Q9H267) was tested, and the “log2 mean competition ratio” value was -0.108.
For UNC45A C223 (UniProt Q9H3U1), the “log2 mean competition ratio” value was -0.0751.
With VARS2 C230 the “log2 mean competition ratio” value was 0.0496.
In the case of UTP20 C1730 (UniProt O75691), the “log2 mean competition ratio” value is reported as -0.247.
UFL1 C32 (UniProt O94874) was tested, and the “log2 mean competition ratio” value was -0.0682.
VPS13B C2007 (UniProt Q7Z7G8) was tested, and the “log2 mean competition ratio” value was -0.216.
With UGGT1 C1386 (UniProt Q9NYU2) the “log2 mean competition ratio” value was 0.268.
USP19 C1042 (UniProt O94966) was tested, and the “log2 mean competition ratio” value was -0.463.
USP34 C111 (UniProt Q70CQ2) was tested, and the “log2 mean competition ratio” value was -0.339.
With UGDH C64 (UniProt O60701) the “log2 mean competition ratio” value was -0.0574.
With UPF3B C319 (UniProt Q9BZI7) the “log2 mean competition ratio” value was -0.108.
With VCPIP1 C397 (UniProt Q96JH7) the “log2 mean competition ratio” value was -0.0962.
In the case of VAX2 C76, the “log2 mean competition ratio” value is reported as 0.0804.
With UBR5 C2094 (UniProt O95071) the “log2 mean competition ratio” value was 0.0246.
With UTP20 C242 (UniProt O75691) the “log2 mean competition ratio” value was 0.188.
With VCPIP1 C816 (UniProt Q96JH7) the “log2 mean competition ratio” value was 0.235.

Same assay, conditions: 200 µM; treatment time: 4 h; cell line lysate: HEK293T
With VAPB C121 (UniProt O95292) the “log2 mean competition ratio” value was -0.0476.
For USP38 C834 (UniProt Q8NB14), the “log2 mean competition ratio” value was 0.24.
In the case of URI1 C167 (UniProt O94763), the “log2 mean competition ratio” value is reported as -0.143.
With VPS18 C741 (UniProt Q9P253) the “log2 mean competition ratio” value was 0.101.
In the case of VPS33B C259 (UniProt Q9H267), the “log2 mean competition ratio” value is reported as -0.22.
With UNC45A C223 (UniProt Q9H3U1) the “log2 mean competition ratio” value was -0.103.
With VARS2 C230 the “log2 mean competition ratio” value was 0.00943.
In the case of UTP20 C1730 (UniProt O75691), the “log2 mean competition ratio” value is reported as 0.396.
UFL1 C32 (UniProt O94874) was tested, and the “log2 mean competition ratio” value was -0.124.
For VPS13B C2007 (UniProt Q7Z7G8), the “log2 mean competition ratio” value was 0.314.
With UGGT1 C1386 (UniProt Q9NYU2) the “log2 mean competition ratio” value was 0.316.
USP19 C1042 (UniProt O94966) was tested, and the “log2 mean competition ratio” value was -0.339.
With USP34 C111 (UniProt Q70CQ2) the “log2 mean competition ratio” value was -0.0451.
UGDH C64 (UniProt O60701) was tested, and the “log2 mean competition ratio” value was 0.155.
For UPF3B C319 (UniProt Q9BZI7), the “log2 mean competition ratio” value was -0.161.
With VCPIP1 C397 (UniProt Q96JH7) the “log2 mean competition ratio” value was 0.0968.
For VAX2 C76, the “log2 mean competition ratio” value was 0.0432.
With UBR5 C2094 (UniProt O95071) the “log2 mean competition ratio” value was -0.0591.
In the case of UTP20 C242 (UniProt O75691), the “log2 mean competition ratio” value is reported as -0.0953.
For VCPIP1 C816 (UniProt Q96JH7), the “log2 mean competition ratio” value was -0.0767.
